Data: patent US20140242609A1, “Diagnosis and treatment of kidney stones, methods and compositions therefor” (Washington University, priority 2013, published 2014)
Entries after “also recorded” stand apart in the source; their conditions may differ. At least one structure is not confirmed: it was looked up by name or label, or the drawing left a doubt.

Test system: claudin-14 mRNA
Experiment: claudin-14 mRNA levels in mouse kidney after systemic treatment (real-time PCR)
Format: in vivo
Conditions: pre-treatment I.P. 3 mg/kg BW−1 per day for 6 days
Method: NPS2143 and cinacalcet (Table 1) were dissolved in vehicle—20% (w/v) (2-Hydroxypropyl)-β-cyclodextrin solution and fed to mice with gavage syringe. Cyclosporin-A (Sandimmune; Table 1) was diluted in 0.9% saline and I.P. injected to animals. Control animals received vehicle injection (13% wiv Cremophor EL and 32.9% ethanol). For dietary Ca^2+ manipulation, animals were fed with the following diets for six consecutive days: basal diet: 0.61% Ca^2+ (TestDiet #5755); low Ca^2+ diet: 0 Ca^++ (TestDiet #5855); high Ca^2+ diet: 5% Ca^2+ (TestDiet #5AVB). All animals had free access to water and were housed under a 12 hr light cycle. Blood samples were taken by cardiac puncture rapidly after initiation of terminal anesthesia and centrifuged at 4° C. for 10 min. Kidney were dissected out and immediately frozen at −80° C.
(§1) Total RNA including microRNA was extracted using Trizol (Invitrogen). […] Results were expressed as 2^−ΔCt values with ΔCT=Ctgene−Ctβ-actin. […]
as §1
Total RNA including microRNA was extracted using Trizol (Invitrogen). […] Results were expressed as 2^−ΔCt values with ΔCT=Ctgene−Ctβ-actin.

C=CC[C@@H]1/C=C(\C)C[C@H](C)C[C@H](OC)[C@H]2O[C@@](O)(C(=O)C(=O)N3CCCC[C@H]3C(=O)O[C@H](/C(C)=C/[C@@H]3CC[C@@H](O)[C@H](OC)C3)[C@H](C)[C@@H](O)CC1=O)[C@H](C)C[C@@H]2OC [FK506]
effect on NPS2143 (calcilytic) induced downregulation of claudin-14 mRNA levels: attenuated; also recorded: abolished
effect on cinacalcet (calcimimetic) induced upregulation of claudin-14 mRNA levels: attenuated
